Data: paper PMC11053110
These are yes or no findings as the source states them, for the method shown. Binding seen in cells or lysates may run through a third protein. Some binding calls cover weakened binding; strength is not graded here. For part of these data: Where a sequence is shown, tags or fusion partners need not be part of it. Values belong to the substance of their own block, whether it stands above or below them.

The chains behind the UniProt entries cited, without tags or fusion partners.
UniProt Q9GZT9: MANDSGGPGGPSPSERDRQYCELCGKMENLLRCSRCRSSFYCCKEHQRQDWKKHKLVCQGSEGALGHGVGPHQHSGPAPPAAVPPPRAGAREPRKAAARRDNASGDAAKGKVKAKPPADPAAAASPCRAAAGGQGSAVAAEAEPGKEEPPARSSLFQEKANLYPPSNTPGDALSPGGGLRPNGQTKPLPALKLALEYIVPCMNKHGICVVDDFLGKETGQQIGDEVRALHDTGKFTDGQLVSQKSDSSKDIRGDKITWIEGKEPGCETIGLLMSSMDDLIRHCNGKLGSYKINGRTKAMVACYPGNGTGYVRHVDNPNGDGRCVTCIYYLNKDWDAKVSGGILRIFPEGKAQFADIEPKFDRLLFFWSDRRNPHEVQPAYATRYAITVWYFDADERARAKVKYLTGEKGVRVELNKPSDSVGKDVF
UniProt Q9H6Z9: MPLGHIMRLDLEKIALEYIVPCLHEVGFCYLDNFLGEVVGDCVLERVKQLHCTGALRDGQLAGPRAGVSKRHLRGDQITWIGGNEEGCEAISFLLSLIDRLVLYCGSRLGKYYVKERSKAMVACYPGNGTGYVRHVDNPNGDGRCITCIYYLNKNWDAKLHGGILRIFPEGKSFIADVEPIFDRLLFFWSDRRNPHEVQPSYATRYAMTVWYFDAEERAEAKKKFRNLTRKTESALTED
UniProt Q96KS0: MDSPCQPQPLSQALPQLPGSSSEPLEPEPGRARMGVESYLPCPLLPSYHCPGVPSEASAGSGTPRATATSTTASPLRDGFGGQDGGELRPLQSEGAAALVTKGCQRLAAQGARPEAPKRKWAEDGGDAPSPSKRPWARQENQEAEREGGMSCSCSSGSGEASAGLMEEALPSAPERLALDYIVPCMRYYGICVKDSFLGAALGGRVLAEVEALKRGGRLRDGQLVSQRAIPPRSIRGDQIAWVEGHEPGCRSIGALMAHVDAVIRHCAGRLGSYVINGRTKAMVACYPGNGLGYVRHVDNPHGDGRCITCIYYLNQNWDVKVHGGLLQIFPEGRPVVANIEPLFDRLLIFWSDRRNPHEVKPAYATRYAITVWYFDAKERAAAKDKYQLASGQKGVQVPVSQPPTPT

Columns and labels:
[1] = target: T1, Flag-IRF3 (WT: full length) (human) (UniProt Q14653); assay: co-IP
T1 sequence: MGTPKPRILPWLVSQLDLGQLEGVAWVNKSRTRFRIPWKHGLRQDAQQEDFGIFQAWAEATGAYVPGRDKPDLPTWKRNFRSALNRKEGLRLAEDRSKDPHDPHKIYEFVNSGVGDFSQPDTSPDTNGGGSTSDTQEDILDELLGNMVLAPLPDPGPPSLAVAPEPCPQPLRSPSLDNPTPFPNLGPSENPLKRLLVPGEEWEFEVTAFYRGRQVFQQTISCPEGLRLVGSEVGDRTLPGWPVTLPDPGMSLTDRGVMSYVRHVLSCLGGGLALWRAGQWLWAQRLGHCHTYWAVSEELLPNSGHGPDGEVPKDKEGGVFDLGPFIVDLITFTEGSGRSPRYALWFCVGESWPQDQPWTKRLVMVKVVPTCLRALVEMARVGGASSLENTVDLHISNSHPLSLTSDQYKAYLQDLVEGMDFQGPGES

Myc-IRF3 (human) = target: T2, Myc-IRF3 (human) (UniProt Q14653); assay: co-IP
T2 sequence: T1 sequence

[2] = target: T3, endogenous IRF3 (human (endogenous in H1299 and THP-1)) (UniProt Q14653); assay: proximity ligation
T3 sequence: T1 sequence

[3] = target: Flag-EGLN1 (WT: full length) (human) (UniProt Q9GZT9); assay: co-IP
HA-EGLN1 (human) = HA-EGLN1 (human) (UniProt Q9GZT9); assay: co-IP
[4] = target: ectopically expressed EGLN1 (Supplementary Fig. 9c-e) (human) (UniProt Q9GZT9); assay: co-IP
[5] = target: ectopically expressed EGLN3 (UniProt Q9H6Z9); assay: co-IP
[6] = target: ectopically expressed EGLN2 (UniProt Q96KS0); assay: co-IP
[7] = target: endogenous EGLN1 (human (endogenous in H1299)) (UniProt Q9GZT9); assay: co-IP

Substance: HA-EGLN1 (from UniProt Q9GZT9 1-426) (enzyme)
binding [1]: binds
binding (Myc-IRF3 (human)): binds

Substance: HA-EGLN1 (in H1299 cells) (from UniProt Q9GZT9 1-426) (enzyme)
binding [2]: binds

Substance: ectopically expressed IRF3 (Supplementary Fig. 9c-e) (from UniProt Q14653 1-427)
binding [4]: binds
binding [5]: no binding
binding [6]: no binding

Next, values leading:

binding [3]: binds
binding (HA-EGLN1 (human)): binds
Substance: Myc-IRF3 (from UniProt Q14653 1-427)

binding [7]: binds
Substance: endogenous IRF3 (from UniProt Q14653 1-427)
